Assay in all cases: co-purification
Experiment [1] deals with T1, Scc1 2xStrepII (S. cerevisiae) (UniProt Q12158).
T1 sequence: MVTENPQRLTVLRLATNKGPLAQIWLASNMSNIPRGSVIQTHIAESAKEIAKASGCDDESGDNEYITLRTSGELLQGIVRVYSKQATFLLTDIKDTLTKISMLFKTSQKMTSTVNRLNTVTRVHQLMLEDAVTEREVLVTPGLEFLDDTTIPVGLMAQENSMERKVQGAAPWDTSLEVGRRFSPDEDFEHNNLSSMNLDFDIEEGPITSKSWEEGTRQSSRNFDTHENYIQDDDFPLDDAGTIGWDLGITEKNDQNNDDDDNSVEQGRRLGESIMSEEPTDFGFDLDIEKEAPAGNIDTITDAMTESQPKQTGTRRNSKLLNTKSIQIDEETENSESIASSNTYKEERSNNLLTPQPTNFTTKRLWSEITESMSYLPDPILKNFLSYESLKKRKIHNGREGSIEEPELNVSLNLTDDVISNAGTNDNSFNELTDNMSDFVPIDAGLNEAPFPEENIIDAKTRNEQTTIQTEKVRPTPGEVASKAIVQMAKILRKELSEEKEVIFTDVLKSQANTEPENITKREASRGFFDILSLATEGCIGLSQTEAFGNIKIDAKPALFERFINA

The chains behind the UniProt entries cited, without tags or fusion partners. Where a name states a change or a piece, a line headed by the entry shows the natural chain unless it says otherwise.
UniProt P32908: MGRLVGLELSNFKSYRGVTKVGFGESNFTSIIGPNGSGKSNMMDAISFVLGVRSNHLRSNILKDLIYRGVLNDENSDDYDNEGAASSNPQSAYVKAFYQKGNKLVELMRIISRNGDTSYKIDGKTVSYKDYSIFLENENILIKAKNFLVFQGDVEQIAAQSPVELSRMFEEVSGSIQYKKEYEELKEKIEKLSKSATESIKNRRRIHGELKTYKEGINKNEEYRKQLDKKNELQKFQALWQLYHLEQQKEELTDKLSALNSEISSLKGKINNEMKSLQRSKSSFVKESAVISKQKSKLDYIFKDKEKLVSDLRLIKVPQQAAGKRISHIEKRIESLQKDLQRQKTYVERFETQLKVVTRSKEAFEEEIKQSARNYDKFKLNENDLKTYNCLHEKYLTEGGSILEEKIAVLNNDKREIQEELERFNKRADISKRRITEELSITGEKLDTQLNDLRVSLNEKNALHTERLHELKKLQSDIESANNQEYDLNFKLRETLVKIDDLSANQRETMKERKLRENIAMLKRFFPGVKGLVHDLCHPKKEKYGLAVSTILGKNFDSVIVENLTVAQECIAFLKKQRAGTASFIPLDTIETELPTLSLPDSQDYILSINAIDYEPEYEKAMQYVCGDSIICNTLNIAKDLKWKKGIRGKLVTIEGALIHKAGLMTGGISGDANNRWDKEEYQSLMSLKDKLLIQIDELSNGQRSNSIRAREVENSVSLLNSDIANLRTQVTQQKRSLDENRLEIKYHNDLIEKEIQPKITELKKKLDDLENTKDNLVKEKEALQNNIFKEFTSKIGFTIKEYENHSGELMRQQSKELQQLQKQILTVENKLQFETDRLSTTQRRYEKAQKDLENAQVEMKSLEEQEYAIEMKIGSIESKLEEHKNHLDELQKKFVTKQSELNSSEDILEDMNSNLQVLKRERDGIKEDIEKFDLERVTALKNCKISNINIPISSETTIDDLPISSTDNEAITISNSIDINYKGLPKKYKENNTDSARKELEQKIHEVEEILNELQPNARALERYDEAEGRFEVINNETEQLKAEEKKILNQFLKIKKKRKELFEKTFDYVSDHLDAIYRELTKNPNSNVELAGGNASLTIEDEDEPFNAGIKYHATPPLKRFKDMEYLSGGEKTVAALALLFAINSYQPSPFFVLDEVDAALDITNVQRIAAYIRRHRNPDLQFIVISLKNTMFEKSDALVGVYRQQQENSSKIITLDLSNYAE
UniProt P47037: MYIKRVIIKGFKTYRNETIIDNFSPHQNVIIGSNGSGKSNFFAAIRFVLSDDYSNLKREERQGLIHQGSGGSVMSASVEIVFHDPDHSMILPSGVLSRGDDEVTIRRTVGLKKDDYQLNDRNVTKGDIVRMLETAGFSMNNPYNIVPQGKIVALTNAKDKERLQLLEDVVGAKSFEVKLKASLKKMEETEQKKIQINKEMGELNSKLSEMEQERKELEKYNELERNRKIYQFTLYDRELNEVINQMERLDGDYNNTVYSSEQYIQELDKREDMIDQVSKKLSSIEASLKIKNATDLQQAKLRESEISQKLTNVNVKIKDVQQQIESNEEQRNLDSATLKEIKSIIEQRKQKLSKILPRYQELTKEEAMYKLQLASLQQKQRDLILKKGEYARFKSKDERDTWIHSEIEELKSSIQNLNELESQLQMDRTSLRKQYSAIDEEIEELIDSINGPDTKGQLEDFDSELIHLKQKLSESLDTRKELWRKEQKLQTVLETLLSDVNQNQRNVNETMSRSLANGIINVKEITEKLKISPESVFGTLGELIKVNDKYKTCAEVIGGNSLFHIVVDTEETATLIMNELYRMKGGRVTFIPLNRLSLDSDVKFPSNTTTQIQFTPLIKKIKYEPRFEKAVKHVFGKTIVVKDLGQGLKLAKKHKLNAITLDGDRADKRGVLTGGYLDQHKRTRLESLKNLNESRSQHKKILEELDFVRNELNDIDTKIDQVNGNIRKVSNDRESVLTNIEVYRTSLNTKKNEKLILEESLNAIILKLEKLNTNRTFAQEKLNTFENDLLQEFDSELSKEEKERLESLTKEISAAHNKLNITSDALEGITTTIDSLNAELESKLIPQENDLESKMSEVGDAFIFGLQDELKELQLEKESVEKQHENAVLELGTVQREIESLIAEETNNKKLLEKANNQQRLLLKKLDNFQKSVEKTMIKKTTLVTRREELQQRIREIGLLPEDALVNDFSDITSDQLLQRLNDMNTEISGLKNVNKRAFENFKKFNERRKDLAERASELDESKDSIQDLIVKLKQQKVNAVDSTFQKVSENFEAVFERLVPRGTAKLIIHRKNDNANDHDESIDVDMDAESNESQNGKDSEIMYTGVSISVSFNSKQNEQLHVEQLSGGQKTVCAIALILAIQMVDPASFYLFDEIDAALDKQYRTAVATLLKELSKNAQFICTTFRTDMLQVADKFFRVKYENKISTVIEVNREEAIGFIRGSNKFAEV

Experiment [2] concerns the target T2, Scc1Δ152-256 2xStrepII (S. cerevisiae) (UniProt Q12158).
T2 sequence: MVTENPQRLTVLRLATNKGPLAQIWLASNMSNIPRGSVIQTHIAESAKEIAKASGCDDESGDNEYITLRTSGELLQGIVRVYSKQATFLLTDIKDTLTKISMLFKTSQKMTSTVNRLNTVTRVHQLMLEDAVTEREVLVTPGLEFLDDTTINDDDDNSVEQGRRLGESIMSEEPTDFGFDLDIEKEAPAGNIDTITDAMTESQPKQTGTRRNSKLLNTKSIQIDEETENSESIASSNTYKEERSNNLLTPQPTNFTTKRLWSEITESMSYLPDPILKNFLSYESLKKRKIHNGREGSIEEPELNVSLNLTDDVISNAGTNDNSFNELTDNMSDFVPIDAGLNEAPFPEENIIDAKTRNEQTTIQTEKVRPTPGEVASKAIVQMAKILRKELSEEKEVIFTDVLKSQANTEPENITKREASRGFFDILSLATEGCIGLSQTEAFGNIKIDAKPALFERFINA

For experiment [3], the target named is cohesin tetramer (Smc1, Smc3, Scc1, Scc3) (S. cerevisiae) (UniProt P32908+P47037+Q12158+P40541).

Data on 2 molecules can be found in article doi:10.1101/205914.

No constants are given. Whether binding was seen depends on the method and setting. Some results given as binding are weak or reduced against the parent protein; the word gives no strength. For some of these results: Where a sequence is shown, tags or fusion partners need not be part of it.

B1: Scc3 (protein, UniProt P40541 1-1150)
chain: MTAVRRSTRIRTKSQVIEEDYDDEQNTSAQHVESDKITAKTQHEEEEEQDTGESEESSSEDDYEDQDDDDYVDTATAKRKSRKRKPKSASNTSSKRQKKKPTSAQKSAVSHAPAYHRSKKDQDQYLEIAKDFQPTELFDILSTSEDVSIEELLREWLETYSENRDKFLQEFINLLLNCCGSVARVEDHDVHSNESSNETIGEIQLLFQRQKLHEFYLLISKENKKRKNFKMGPLYQNFAEFMTKLLEVANDLQLLYVESDEDDTQIVTGNLVLDLLTWLSSFSVCKIRCFRYISTLTLYLFQDYLTQQAVNLEKNYLAKLSKQLSLEEKKKRPNNKTLEKLESTIAETQGSKVVIDSIIDNIVKLCFVHRYKDVSDLIRSESMLHLSIWIKNYPEYFLKVTFLKYFGWLLSDNSVSVRLQVTKILPHLIIQNHNSKSTDNSAIRQVFERFKTKILEVAIRDVNLDVRIHSIQVLTEASSLGYLDDSEILIISSLMFDEEFDPFKTSSFNKRSKFLSTVAKFLARVIKEKFDEFIKTHEDLPKEVDGLEVGPVVQVGIFIKILNDSLIYHLKDCAEVDSRTKIRMLTQAAEFLSPYISTHLKTICNLLISDTESNELIQKLQNSANNNSDDEDVDDEELDITPLFPIDRNSTILYLNVFHGLCAGANNPKIQTKDSVKEIVLPLFYDLLNAASIESADILCPLLESFITFSLDDWISIGYETELKKITDKTIKAFMDSTIGNSKVDMKYDIFAKFIHHIHHFEKKELQEKFLNQIATLKIHLKKFLQEKMDPNNSRDDYKDLTCSLYELYINKLTILGRDYPIEVDEELLQLFLNNFVSRIPIMFQDFDDSTAQEINFKMLVLLATWNLEKWREIIEKVRDYENSISKDLRSVWKPIAAIIGRLNTLVISLAATNETFENINSLFYLKWSACTSLMDIIVAIKIFELKLPADATTWRYSMSEQFPFYLHDNASKVLLKIFLYLESLFAKQVDVQLERVADEDANLNDLPETGFFENIETEFLLFTVKLKGLMKLNILDERFASRVALNKEKLGPLFKKIVDDTIMENPEPNKKNIQKAKSNQTQREKAPLQPNSERETDHANTENNDPDIPMTIDLEPIEESSQNNSELAPIEEHPTVVDAIDNSDEITQD
Consider B1, for which the binding result in experiment [1] and in experiment [2] was “binds” each time.

B2: Pds5-Flag (protein, UniProt Q04264 1-1277)
chain: MAKGAVTKLKFNSPIISTSDQLISTNELLDRLKALHEELASLDQDNTDLTGLDKYRDALVSRKLLKHKDVGIRAFTACCLSDILRLYAPDAPYTDAQLTDIFKLVLSQFEQLGDQENGYHIQQTYLITKLLEYRSIVLLADLPSSNNLLIELFHIFYDPNKSFPARLFNVIGGILGEVISEFDSVPLEVLRLIFNKFLTYNPNEIPEGLNVTSDCGYEVSLILCDTYSNRMSRHLTKYYSEIIHEATNDDNNSRLLTVVVKLHKLVLRLWETVPELINAVIGFIYHELSSENELFRKEATKLIGQILTSYSDLNFVSTHSDTFKAWISKIADISPDVRVEWTESIPQIIATREDISKELNQALAKTFIDSDPRVRRTSVMIFNKVPVTEIWKNITNKAIYTSLLHLAREKHKEVRELCINTMAKFYSNSLNEIERTYQNKEIWEIIDTIPSTLYNLYYINDLNINEQVDSVIFEYLLPFEPDNDKRVHRLLTVLSHFDKKAFTSFFAFNARQIKISFAISKYIDFSKFLNNQESMSSSQGPIVMNKYNQTLQWLASGLSDSTKAIDALETIKQFNDERIFYLLNACVTNDIPFLTFKNCYNELVSKLQTPGLFKKYNISTGASIMPRDIAKVIQILLFRASPIIYNVSNISVLLNLSNNSDAKQLDLKRRILDDISKVNPTLFKDQIRTLKTIIKDLDDPDAEKNDNLSLEEALKTLYKASKTLKDQVDFDDTFFFTKLYDFAVESKPEITKYATKLIALSPKAEETLKKIKIRILPLDLQKDKYFTSHIIVLMEIFKKFPHVLNDDSTDIISYLIKEVLLSNQVVGDSKKEIDWVEDSLLSDTKYSAIGNKVFTLKLFTNKLRSIAPDVPRDELAESFTEKTMKLFFYLIASGGELISEFNKEFYPTPSNYQTKLRCVAGIQVLKLARISNLNNFIKPSDIIKLINLVEDESLPVRKTFLEQLKDYVANELISIKFLPLVFFTAYEPDVELKTTTKIWINFTFGLKSFKKGTIFERALPRLIHAIAHHPDIVGGLDSEGDAYLNALTTAIDYLLFYFDSIAAQENFSLLYYLSERVKNYQDKLVEDEIDEEEGPQKEEAPKKHRPYGQKMYIIGELSQMILLNLKEKKNWQHSAYPGKLNLPSDLFKPFATVQEAQLSFKTYIPESLTEKIQNNIKAKIGRILHTSQTQRQRLQKRLLAHENNESQKKKKKVHHARSQADDEEGDGDRESDSDDDSYSPSNKNETKKGHENIVMKKLRVRKEVDYKDDEDDDIEMT
Turning to B2, the binding result in experiment [1] and in experiment [3] was “binds” in each case.
